Reference: PubChem BioAssay AID720703 (Peter MacCallum Cancer Centre, 2013)

Test: 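Which kinases alter ERK activation once AT1R is stimulated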 (primary screen)
Cell system: immortalised, SV40-transformed mammary epithelial cells from human, with stable expression of tagged AT1R
Reagents: siRNA pool against human genes, 40 nM siRNA pool per well
Time to read-out: 72 h from transfection to lysis and read-out
Conditions: angiotensin II stimulation (dose and duration not given); EGFR inhibitor AG1478 also listed
Measured: 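ERK1/2 phosphorylation corrected for confluency, given as a robust z-score, mean over two replicate plates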
Reading the numbers: phospho-ERK z-score: higher = more ERK phosphorylation after angiotensin II, relative to plate
Active means: 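Pools were ordered by robust z-score and 50 top-ranked pools, whether they raised or lowered the signal, were chosen for secondary testing; no numeric threshold was reported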
Calls: active = picked for secondary screen; inactive = not picked
The whole screen tested 714 reagents; shown is a part drawn at random. Over the whole deposit, 50 (7%) are marked active. 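Chosen pools sit at both extremes, so both low and high scores count as candidates; some pools appear more than once.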 Unmarked entries are inactive. A reagent listed more than once was tested more than once; the source does not tell the runs apart.

| gene | phospho-ERK z-score, replicate mean |
| --- | --- |
| PKIA (GeneID 5569) | -0.64 |
| SGK2 (GeneID 10110) | -0.14 |
| RPS6KA2 (GeneID 6196) | -0.24 |
| RPS6KA6 (GeneID 27330) | 0.03 |
| CDKN2B (GeneID 1030) | -0.11 |
| CDK11B (GeneID 984) | 0.51 |
| EIF2AK2 (GeneID 5610) | 1.55 |
| RIPK4 (GeneID 54101) | -0.86 |
| CHEK2 (GeneID 11200) | -0.22 |
| CDK16 (GeneID 5127) | -0.34 |
| CSNK1D (GeneID 1453) | -0.08 |
| LATS1 (GeneID 9113) | -0.3 |
| RPS6KB2 (GeneID 6199) | -0.8 |
| CDKL5 (GeneID 6792) | -0.74 |
| TLK1 (GeneID 9874) | 1.89 |
| MERTK (GeneID 10461) | -0.24 |
| BMP2K (GeneID 55589) | 0.6 |
| MAP4K5 (GeneID 11183) | 0.43 |
| CSNK1G3 (GeneID 1456) | 0.22 |
| AGK (GeneID 55750) | -1.38 (active) |
| DYRK1B (GeneID 9149) | -0.18 |
| TRIB3 (GeneID 57761) | -0.84 |
| PFKM (GeneID 5213) | -0.64 |
| MAP4K1 (GeneID 11184) | -0.57 |
| ZAP70 (GeneID 7535) | -0.24 |
| SCYL3 (GeneID 57147) | -0.3 |
| RPS6KC1 (GeneID 26750) | -0.88 |
| UCK1 (GeneID 83549) | 0.16 |
| PDPK1 (GeneID 5170) | -0.18 |
| GRK7 (GeneID 131890) | 1.2 |
| MAP4K2 (GeneID 5871) | 1.36 |
| MAPK3 (GeneID 5595) | 1.95 |
| HIPK4 (GeneID 147746) | -0.46 |
| PANK1 (GeneID 53354) | 0.18 |
| NRK (GeneID 203447) | 0.37 |
| AMHR2 (GeneID 269) | 0.46 |
| HIPK3 (GeneID 10114) | 4.01 (active) |
| NEK9 (GeneID 91754) | -0.38 |
| EFNA5 (GeneID 1946) | -0.28 |
| NTRK3 (GeneID 4916) | 1.24 |
| GTF2H1 (GeneID 2965) | -0.26 |
| PRPS1 (GeneID 5631) | 0.05 |
| AXL (GeneID 558) | -0.36 |
| RSKR (GeneID 124923) | 0.36 |
| PFKL (GeneID 5211) | 0.52 |
| MAP2K6 (GeneID 5608) | 0.61 |
| CDK15 (GeneID 65061) | 0.3 |
| WNK1 (GeneID 65125) | 0.16 |
| AAK1 (GeneID 22848) | 0.51 |
| CHKB (GeneID 1120) | -0.91 |
| PDK2 (GeneID 5164) | 0.2 |
| MKNK1 (GeneID 8569) | 0.16 |
| BCR (GeneID 613) | -0.58 |
| CHEK1 (GeneID 1111) | 1.27 |
| TGFBR3 (GeneID 7049) | 0.7 |
| PIK3CA (GeneID 5290) | -1.48 (active) |
| TBK1 (GeneID 29110) | 0.18 |
| PHKB (GeneID 5257) | -0.26 |
| ABL1 (GeneID 25) | 0.36 |
| MAP4K4 (GeneID 9448) | 0.66 |
| GUCY2D (GeneID 3000) | 1.18 |
| CLK2 (GeneID 1196) | -0.22 |
| PAPSS2 (GeneID 9060) | 0.74 |
| SRPK3 (GeneID 26576) | 0.02 |
| ALPK3 (GeneID 57538) | -0.64 |
| TNNI3K (GeneID 51086) | 0.08 |
| PAK2 (GeneID 5062) | -0.18 |
| AURKB (GeneID 9212) | 0.48 |
| TLK2 (GeneID 11011) | 0.94 |
| NEK7 (GeneID 140609) | -0.76 |
| CDK12 (GeneID 51755) | -0.73 |
| RPS6KA4 (GeneID 8986) | 3.32 (active) |
| ATM (GeneID 472) | -0.94 |
| DDR2 (GeneID 4921) | 1.99 |
| PRKAR1A (GeneID 5573) | 0.9 |
| AK7 (GeneID 122481) | 0.77 |
| PIK3R1 (GeneID 5295) | 0.59 |
| TSSK4 (GeneID 283629) | 1.32 |
| GCK (GeneID 2645) | 0.11 |
| CIT (GeneID 11113) | 0.43 |
| AKT1 (GeneID 207) | -1.28 (active) |
| ADCK5 (GeneID 203054) | 0.16 |
| LMTK3 (GeneID 114783) | 0.61 |
| LMTK1 (GeneID 9625) | 0.28 |
| MAP3K20 (GeneID 51776) | 1.82 |
| TSSK6 (GeneID 83983) | 5.39 |
| TSSK6 (GeneID 83983) | 0.71 |
| PTK2B (GeneID 2185) | 0.38 |
| SRPK2 (GeneID 6733) | -0.5 |
| PFKP (GeneID 5214) | 1.34 |
| FGFR3 (GeneID 2261) | -1.08 (active) |
| CSF1R (GeneID 1436) | -0.7 |
| AK2 (GeneID 204) | 0.1 |
| FES (GeneID 2242) | 3.41 (active) |
| CSNK1G2 (GeneID 1455) | -0.84 |
| MYO3B (GeneID 140469) | 2.36 |
| KSR2 (GeneID 283455) | 0.74 |
| CAMK2G (GeneID 818) | -0.5 |
| PRKCI (GeneID 5584) | -1.11 (active) |
| LIMK1 (GeneID 3984) | -0.28 |
| PIP4K2C (GeneID 79837) | -0.1 |
| N4BP2 (GeneID 55728) | 0.01 |
| PKN3 (GeneID 29941) | -0.98 |
| CDK5R2 (GeneID 8941) | -0.84 |
| BRD3 (GeneID 8019) | 0.12 |
| FN3KRP (GeneID 79672) | 4.65 (active) |
| PCK1 (GeneID 5105) | 0.07 |
| MAP3K1 (GeneID 4214) | 0.1 |
| PRKAB2 (GeneID 5565) | 2.44 |
| STK24 (GeneID 8428) | 0.26 |

Hits, among the entries above:
| gene | phospho-ERK z-score, replicate mean |
| --- | --- |
| AGK (GeneID 55750) | -1.38 (active) |
| HIPK3 (GeneID 10114) | 4.01 (active) |
| PIK3CA (GeneID 5290) | -1.48 (active) |
| RPS6KA4 (GeneID 8986) | 3.32 (active) |
| AKT1 (GeneID 207) | -1.28 (active) |
| FGFR3 (GeneID 2261) | -1.08 (active) |
| FES (GeneID 2242) | 3.41 (active) |
| PRKCI (GeneID 5584) | -1.11 (active) |
| FN3KRP (GeneID 79672) | 4.65 (active) |
